The assay can be described thus: qHTS Assay for Lipid Storage Modulators in Drosophila S3 Cells.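 On cell number change: cells counted by Cell Tracker Red CMTPX staining in the red channel.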 As to conditions: BODIPY lipid droplet fluorescence, 18-24 h; for cell number change: measured here: cell count max response, cells fed with added oleic acid. A digest of the protocol:
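Drosophila S3 cells got compounds at several concentrations plus oleic acid (400 uM solution). Laser-scanning cytometry with 488 nm excitation read lipid droplets at 500-530 nm and cells at 575-640 nm. Percent activity was relative to 20 uM Triacsin C.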

Setting [1] is: measured here: cell number channel AC50, cells fed with added oleic acid.
Setting [2] is: measured here: lipid fluorescence (Fed channel) AC50, cells fed with added oleic acid.

These results are taken from PubChem BioAssay AID2685 (National Center for Advancing Translational Sciences (NCATS), 2010).

This is one part of the list. Further columns of the screen follow, without active or inactive calls. Most of these compounds were active or inconclusive in the main read-out, so they are no random draw. Potencies come from curve fits of mixed quality, noted in brackets.

What is called AC50 is the concentration at which the activity in the assay is half-maximal. Higher therefore signals weaker potency. With `Cc1cc(NC(=O)c2noc3c2CCCC3)nn1Cc1ccc(Cl)cc1`, the cell number change was -1.53%. In addition, under setting [1], the AC50 was 0.092 µM [falling, full curve, poor fit]. For the same compound, the AC50 under setting [2] was 23.1 µM [falling, partial curve, poor fit].

Take `COc1ccc(C(C)=O)cc1CSc1nnc(-c2ccc(Cl)cc2)n1-c1ccccc1`: the cell number change turned out to be 5.98%. The AC50 under setting [1] is 0.00461 µM [rising, full curve, poor fit].

Take `Nc1ccc(C(=O)N/N=C\c2ccc(OC(=O)c3ccccc3Cl)cc2)cc1`: the cell number change is 17.3%. The half-maximal activity concentration (AC50) under setting [1] is 0.731 µM [falling, partial curve, poor fit]. Also, under setting [2], the AC50 is 0.184 µM [rising, full curve, poor fit].

Regarding `CCOc1ccc2nc(Cl)c(C3CC(c4ccccc4)=NN3C(=O)c3cccs3)cc2c1` (stereo not drawn), the cell number change is -13.7%. The AC50 under setting [2] was 0.58 µM [rising, partial curve, poor fit].

In the case of `CCN(CC)CCNC(=O)CCc1nnc2ccc(N3CCC(C)CC3)nn12`, the cell number change came to 41%. Further, the AC50 under setting [1] is 20.6 µM [rising, single point]. Also, under setting [2], the AC50 was 20.6 µM [rising, partial curve, poor fit].

With `CN(C)c1ncc(S(=O)(=O)c2ccccc2)c(-c2ccc(Cl)cc2Cl)n1`, the cell number change stood at 40%. Besides, under setting [1], the AC50 was 2.31 µM [rising, full curve].

For the compound `CSCCC(NC(=O)c1cncc(Br)c1)C(=O)O` (stereo not drawn), the cell number change is -43.8%. Also, the AC50 under setting [1] is 9.2 µM [falling, partial curve, poor fit]. The half-maximal activity concentration (AC50) under setting [2] is 4.11 µM [falling, partial curve, poor fit].

With `C=CCN1C(c2ccccc2)=CS/C1=C(/C#N)c1nnc(N2CCOCC2)n1-c1ccccc1`, the cell number change turned out to be 6.58%. For the same compound, the AC50 under setting [2] was 2.91 µM [rising, partial curve, poor fit].

Consider `CCOCCCNS(=O)(=O)c1ccc(NC(=O)c2ccc(OC)c([N+](=O)[O-])c2)cc1`, for which, under setting [1], the half-maximal activity concentration (AC50) was 7.31 µM [falling, single point].

Consider `COc1ccc2c(c1)CC[C@@H]1[C@@H]2CC[C@]2(C)C(=O)CC[C@@H]12`, for which the cell number change was found to be 34.6%. Also, the AC50 under setting [1] is 18.4 µM [rising, partial curve, poor fit]. For the same compound, the AC50 under setting [2] was 18.4 µM [rising, partial curve, poor fit].

As to `C/C(=N\Nc1ccccc1[N+](=O)[O-])c1ccc(N2CCOCC2)cc1`, the cell number change is -121%. The AC50 under setting [1] was 5.8 µM [falling, full curve]. The AC50 under setting [2] was 18.4 µM [falling, partial curve].

As to `Cc1ccccc1Cn1c2ccccc2c2cnn(CC(=O)NCc3ccccn3)c(=O)c21`, the cell number change came to 3.05%. Moreover, the AC50 under setting [2] is 29.1 µM [falling, single point].

Take `Cc1ccccc1CN1CCC(CNC(=O)C2CCCN(c3ncnc4c3nc3n4CCCCC3)C2)CC1` (stereo not drawn): the cell number change is 27.6%.

Regarding `Nc1ncnc(N)c1N=Nc1ccccc1`, the cell number change was -42.6%. Under setting [1], the AC50 is 20.6 µM [falling, partial curve]. Besides, the half-maximal activity concentration (AC50) under setting [2] was 5.17 µM [falling, full curve].

With `O=C(NNc1nc2c(F)cccc2s1)c1ccc(F)cc1`, the cell number change amounted to 27.9%.

For `CS(=O)(=O)c1ccc(C(=O)NCC(c2ccco2)N2CCCCC2)cc1` (stereo not drawn), the cell number change was determined as 19%. Also, the AC50 under setting [2] is 25.9 µM [falling, partial curve].

`CCN1CCN(C(=O)c2cc3nc(-c4ccccc4)cc(C(F)(F)F)n3n2)CC1`: the cell number change is -6.48%.

For the compound `O=C(C1CCC(=O)N1Cc1cccnc1)N1CCN(c2ccc(F)cc2)CC1` (stereo not drawn), the cell number change was determined as 38.4%. Also, under setting [1], the AC50 was 5.8 µM [rising, single point]. Moreover, the AC50 under setting [2] was 6.51 µM [rising, single point].

With `CC(C)CNC(=O)CO/N=C/c1ccccc1Cl`, the cell number change was 44.8%. Under setting [1], the AC50 is 29.1 µM [rising, single point].

`CC(=O)NC1(c2ccccc2)CCN(C(=O)N2CCOCC2)CC1`: under setting [2], the AC50 was 0.146 µM [falling, full curve].

Regarding `Cc1ccc(-n2nc3c(=O)n(CC(=O)NCCCc4ccccc4)nc(C)c3c2C)cc1`, the AC50 under setting [2] was 29.1 µM [falling, single point].

Take `Cc1cc(N2CCN(C3CCCC3)CC2)n2ncc(-c3ccccc3)c2n1`: the cell number change was found to be 2.83%. Under setting [1], the AC50 was 0.116 µM [falling, full curve].

Regarding `COCCCNCC(O)C(F)(F)F` (stereo not drawn), the cell number change turned out to be 7.45%. Also, under setting [1], the concentration at half-maximal activity (AC50) is 0.326 µM [falling, partial curve, poor fit]. In addition, the AC50 under setting [2] was 0.164 µM [falling, full curve].

As for `Cc1ccc(S(=O)(=O)N2[C@@H](c3ccccc3F)C(C(=O)O)=CC[C@H]2c2ccc(Cl)cc2)cc1`, the cell number change stood at 13.1%. Besides, the half-maximal activity concentration (AC50) under setting [2] is 0.651 µM [rising, full curve].

For `N=C1C(c2nc(-c3cccc([N+](=O)[O-])c3)cs2)=C(O)CN1NC(=O)c1ccco1`, the cell number change came out at 39.1%. Moreover, under setting [1], the AC50 was 5.17 µM [rising, full curve].

For the compound `CCC(=O)NCc1ccc(-c2nc3ncccc3o2)cc1`, the cell number change is -22.4%. Moreover, under setting [1], the AC50 is 0.00411 µM [falling, full curve, poor fit].

Take `CN(C)S(=O)(=O)c1ccc(Cl)c(NC(=O)CSc2nc3ccccc3c(=O)n2CCCN2CCOCC2)c1`: the cell number change is -42.4%. Further, the AC50 under setting [1] is 0.00461 µM [falling, full curve, poor fit]. For the same compound, under setting [2], the AC50 is 29.1 µM [falling, single point].

Turning to `Cc1c(C(=O)Nc2ccc3nc(N4CCOCC4)sc3c2)oc2ccccc12`, the cell number change was -31.2%. Under setting [1], the AC50 was 29.1 µM [falling, partial curve].

For `COc1ccc(S(=O)(=O)N(C)CC(=O)Nc2ccc(F)cc2)cc1`, the cell number change was -10.2%. For the same compound, under setting [1], the concentration at half-maximal activity (AC50) is 0.92 µM [falling, full curve]. Further, the AC50 under setting [2] is 23.1 µM [falling, partial curve, poor fit].

Turning to `Cn1cc(C=O)c2cc(S(=O)(=O)N3CCOCC3)ccc21`, the cell number change was 43.5%. For the same compound, under setting [1], the AC50 was 20.6 µM [rising, single point]. The AC50 under setting [2] is 18.4 µM [rising, single point].

Consider `COc1ccc(CNCc2ccncc2)cc1OC`, for which the cell number change amounted to 24.9%.

Take `O=C(Nc1ccccc1C(=O)N1CCOCC1)c1ccc([N+](=O)[O-])cc1`: the cell number change was -8%.

For the compound `Cc1nn(-c2ccc(C(=O)O)cc2)c(=O)c2ccccc12`, the cell number change is 32.2%. Also, the AC50 under setting [1] was 18.4 µM [rising, single point].

Take `Cc1cc(NC(=O)c2ccc3c(c2)OCCO3)ccc1NC(=O)c1cc2ccccc2o1`: the cell number change is 29.9%. The AC50 under setting [1] is 0.517 µM [rising, full curve]. The AC50 under setting [2] was 18.4 µM [rising, partial curve, poor fit].
